Laboratory results: US20190119389A1
Where a chain is given by its changes, count along the chain named. Results are given in words; binding and its absence hold for the method and conditions named. Some entries that bind do so weakly or less than the wild type.

Sequences of proteins named here, by UniProt entry; tags and fusion partners are left off. A change or cut given only in a name is not applied to a line headed by its entry.
UniProt O14786: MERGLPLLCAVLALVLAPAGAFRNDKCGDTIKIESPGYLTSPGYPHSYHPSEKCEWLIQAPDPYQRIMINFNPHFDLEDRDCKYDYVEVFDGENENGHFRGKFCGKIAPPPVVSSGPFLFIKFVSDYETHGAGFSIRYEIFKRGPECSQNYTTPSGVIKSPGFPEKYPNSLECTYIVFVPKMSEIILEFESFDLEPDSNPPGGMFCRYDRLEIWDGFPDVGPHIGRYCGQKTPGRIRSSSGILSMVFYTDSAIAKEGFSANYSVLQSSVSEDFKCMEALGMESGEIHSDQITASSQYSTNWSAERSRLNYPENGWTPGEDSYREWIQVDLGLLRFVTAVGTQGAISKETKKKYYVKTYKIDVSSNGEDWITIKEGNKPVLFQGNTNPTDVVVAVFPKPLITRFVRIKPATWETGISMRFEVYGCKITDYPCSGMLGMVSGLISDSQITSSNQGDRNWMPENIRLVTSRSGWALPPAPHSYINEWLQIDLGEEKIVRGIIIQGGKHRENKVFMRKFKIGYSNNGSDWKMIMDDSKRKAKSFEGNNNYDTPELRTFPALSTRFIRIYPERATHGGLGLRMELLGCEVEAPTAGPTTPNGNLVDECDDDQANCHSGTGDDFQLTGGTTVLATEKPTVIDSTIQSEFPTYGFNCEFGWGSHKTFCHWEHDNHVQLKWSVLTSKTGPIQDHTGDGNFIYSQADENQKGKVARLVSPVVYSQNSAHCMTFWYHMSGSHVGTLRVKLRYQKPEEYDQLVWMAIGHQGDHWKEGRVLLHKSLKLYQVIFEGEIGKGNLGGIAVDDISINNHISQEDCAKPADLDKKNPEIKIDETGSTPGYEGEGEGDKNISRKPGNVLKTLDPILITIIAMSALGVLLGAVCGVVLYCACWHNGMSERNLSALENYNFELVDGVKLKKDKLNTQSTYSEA

B1: MAB1 (antibody, V domains shown)
VH: QVQLVQSGAGVKKPGASVKVSCKASGYTFRSYYMLWVRQAPGQGLEWMGIIDPSDGSTSYAQKFQGRVTMTRDTPTSTVYMELSSLRSEDTAVYYCARGARRITGYGMDVWGQGTTVTVSS
VL: DIQMTQSPSSVSASVGDRVTITCRASQGISSWLAWYQQKPGKAPKLLIYAASNLQSGVPSRFSGSGSGTDFTLTISSLQPEDFATYYCQQASVFPFTFGGGTKVEIK
B2: MAB2 (antibody, V domains shown)
VH: B1 VH with G10E, T74A, P75S, T118I
VL: B1 VL
B3: MAB4 (antibody, V domains shown)
VH: QVQLVQSGAEVKKPGASVKVSCKASGYTFSRYYMHWVRQAPGQGLEWMGIINPLGGSTLYAQKFQGRVTMTRDTSTSTVYMELSSLRSEDTAVYYCARDLGYYGSGMHVWGQGTLVTVSS
VL: B1 VL with S31R, N53S, S92N, V93L, F94L
B4: MAB3 (antibody, V domains shown)
VH: B3 VH with V2A, V109A
VL: B1 VL with S31R, N53S, S92N, V93L, F94L
B5: SEC3 (antibody, human IgG1, kappa, V domains shown)
VH: EVQLVESGGGLVQPGGSLRLSCAASGFTISGYGIHWVRQAPGKGLEWVAYIYPDSGYTDYADSVKGRFTISADTSKNTAYLQMNSLRAEDTAVYYCAREDFRNRRRLWYVMDYWGQGTLVTVSS
VL: DIQMTQSPSSLSASVGDRVTITCRASQDVSTAVAWYQQKPGKAPKLLIYSASFLYSGVPSRFSGSGSGTDFTLTISSLQPEDFATYYCQQAWAYLPTFGQGTKVEIKR

Biological target: Recombinant human NRP-1-Fc fusion protein, a1a2 domains (human) (UniProt O14786)
Experiment: BLI Octet QKe, antibody on AHC sensor, NRP-1-Fc fragment 500 nM

binding | Binder
binds | B1
binds | B2
binds | B3
binds | B4
binds | B5

Biological target: Recombinant human NRP-1-Fc fusion protein, a1 domain (human) (UniProt O14786)
Experiment: as above

binding | Binder
binds | B3
binds | B4
binds | B5
